# Article PMC6041257
# The chains behind the UniProt entries cited, without tags or fusion partners.
# UniProt P08151: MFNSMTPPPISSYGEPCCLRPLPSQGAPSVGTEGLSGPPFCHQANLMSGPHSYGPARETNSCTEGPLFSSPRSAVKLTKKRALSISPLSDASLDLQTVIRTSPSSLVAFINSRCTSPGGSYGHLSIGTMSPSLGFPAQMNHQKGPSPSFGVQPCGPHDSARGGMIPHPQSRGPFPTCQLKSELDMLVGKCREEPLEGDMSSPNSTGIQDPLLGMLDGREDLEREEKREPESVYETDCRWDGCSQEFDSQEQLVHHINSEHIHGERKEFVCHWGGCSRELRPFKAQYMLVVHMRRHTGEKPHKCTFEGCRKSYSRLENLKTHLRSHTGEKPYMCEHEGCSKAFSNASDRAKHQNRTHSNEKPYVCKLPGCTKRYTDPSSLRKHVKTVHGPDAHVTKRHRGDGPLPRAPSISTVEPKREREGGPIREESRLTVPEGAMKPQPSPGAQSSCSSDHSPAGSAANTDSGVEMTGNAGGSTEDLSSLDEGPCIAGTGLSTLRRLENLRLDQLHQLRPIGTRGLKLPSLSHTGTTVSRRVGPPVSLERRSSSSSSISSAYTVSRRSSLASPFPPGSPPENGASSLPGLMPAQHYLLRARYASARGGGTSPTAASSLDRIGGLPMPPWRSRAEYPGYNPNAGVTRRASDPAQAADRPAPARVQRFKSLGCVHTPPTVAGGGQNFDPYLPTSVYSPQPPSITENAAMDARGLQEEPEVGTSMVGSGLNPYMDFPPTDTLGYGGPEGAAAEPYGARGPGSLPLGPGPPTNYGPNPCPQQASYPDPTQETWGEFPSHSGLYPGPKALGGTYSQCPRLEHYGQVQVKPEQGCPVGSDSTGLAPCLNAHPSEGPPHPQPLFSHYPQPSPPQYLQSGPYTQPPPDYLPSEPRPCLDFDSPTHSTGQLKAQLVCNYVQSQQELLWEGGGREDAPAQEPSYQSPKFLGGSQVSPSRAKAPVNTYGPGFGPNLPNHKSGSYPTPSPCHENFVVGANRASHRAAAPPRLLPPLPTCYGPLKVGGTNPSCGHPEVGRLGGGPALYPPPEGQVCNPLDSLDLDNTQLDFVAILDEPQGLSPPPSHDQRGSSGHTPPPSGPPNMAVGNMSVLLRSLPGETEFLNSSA
# Positions count from the first letter of the chain named. No constants are given. Whether binding was seen depends on the method and setting. In cells and extracts the contact can be indirect. Some binding calls cover weakened binding; strength is not graded here.
# B1: MEKK2 (transfected) (enzyme, UniProt Q9Y2U5 1-619)
# chain: MDDQQALNSIMQDLAVLHKASRPALSLQETRKAKSSSPKKQNDVRVKFEHRGEKRILQFPRPVKLEDLRSKAKIAFGQSMDLHYTNNELVIPLTTQDDLDKAVELLDRSIHMKSLKILLVINGSTQATNLEPLPSLEDLDNTVFGAERKKRLSIIGPTSRDRSSPPPGYIPDELHQVARNGSFTSINSEGEFIPESMDQMLDPLSLSSPENSGSGSCPSLDSPLDGESYPKSRMPRAQSYPDNHQEFSDYDNPIFEKFGKGGTYPRRYHVSYHHQEYNDGRKTFPRARRTQGTSLRSPVSFSPTDHSLSTSSGSSIFTPEYDDSRIRRRGSDIDNPTLTVMDISPPSRSPRAPTNWRLGKLLGQGAFGRVYLCYDVDTGRELAVKQVQFDPDSPETSKEVNALECEIQLLKNLLHERIVQYYGCLRDPQEKTLSIFMEYMPGGSIKDQLKAYGALTENVTRKYTRQILEGVHYLHSNMIVHRDIKGANILRDSTGNVKLGDFGASKRLQTICLSGTGMKSVTGTPYWMSPEVISGEGYGRKADIWSVACTVVEMLTEKPPWAEFEAMAAIFKIATQPTNPKLPPHVSDYTRDFLKRIFVEAKLRPSADELLRHMFVHYH
# B2: MEKK3 (transfected, wild type) (enzyme, UniProt Q99759 1-626)
# chain: MDEQEALNSIMNDLVALQMNRRHRMPGYETMKNKDTGHSNRQSDVRIKFEHNGERRIIAFSRPVKYEDVEHKVTTVFGQPLDLHYMNNELSILLKNQDDLDKAIDILDRSSSMKSLRILLLSQDRNHNSSSPHSGVSRQVRIKASQSAGDINTIYQPPEPRSRHLSVSSQNPGRSSPPPGYVPERQQHIARQGSYTSINSEGEFIPETSEQCMLDPLSSAENSLSGSCQSLDRSADSPSFRKSRMSRAQSFPDNRQEYSDRETQLYDKGVKGGTYPRRYHVSVHHKDYSDGRRTFPRIRRHQGNLFTLVPSSRSLSTNGENMGLAVQYLDPRGRLRSADSENALSVQERNVPTKSPSAPINWRRGKLLGQGAFGRVYLCYDVDTGRELASKQVQFDPDSPETSKEVSALECEIQLLKNLQHERIVQYYGCLRDRAEKTLTIFMEYMPGGSVKDQLKAYGALTESVTRKYTRQILEGMSYLHSNMIVHRDIKGANILRDSAGNVKLGDFGASKRLQTICMSGTGMRSVTGTPYWMSPEVISGEGYGRKADVWSLGCTVVEMLTEKPPWAEYEAMAAIFKIATQPTNPQLPSHISEHGRDFLRRIFVEARQRPSAEELLTHHFAQLMY
# B3: MEKK3-KD (kinase-dead mutant, S526/T530 to Ala) (enzyme, UniProt Q99759 1-626)
# chain: B2 chain with S526A, T530A
# B4: MEKK2 (endogenous, NIH3T3) (enzyme, UniProt Q61083 1-619)
# chain: MDDQQALNSIMQDLAVLHKASRPALSLQETRKAKPSSPKKQNDVRVKFEHRGEKRILQVTRPVKLEDLRSKSKIAFGQSMDLHYTNNELVIPLTTQDDLDKAVELLDRSIHMKSLKILLVVNGSTQATNLEPSPSPEDLNNTPLGAERKKRLSVVGPPNRDRSSPPPGYIPDILHQIARNGSFTSINSEGEFIPESMDQMLDPLSLSSPENSGSGSCPSLDSPLDGESYPKSRMPRAQSYPDNHQEFTDYDNPIFEKFGKGGTYPRRYHVSYHHQEYNDGRKTFPRARRTQGTSFRSPVSFSPTDHSLSTSSGSSVFTPEYDDSRIRRRGSDIDNPTLTVTDISPPSRSPRAPTNWRLGKLLGQGAFGRVYLCYDVDTGRELAVKQVQFNPESPETSKEVNALECEIQLLKNLLHERIVQYYGCLRDPQEKTLSIFMELSPGGSIKDQLKAYGALTENVTRKYTRQILEGVHYLHSNMIVHRDIKGANILRDSTGNIKLGDFGASKRLQTICLSGTGMKSVTGTPYWMSPEVISGEGYGRKADIWSVACTVVEMLTEKPPWAEFEAMAAIFKIATQPTNPKLPPHVSDYTRDFLKRIFVEAKLRPSAEELLRHMFVHYH
# B5: MEKK3 (endogenous, NIH3T3) (enzyme, UniProt Q61084 1-626)
# chain: MDEQEALDSIMKDLVALQMSRRTRLSGYETMKNKDTGHPNRQSDVRIKFEHNGERRIIAFSRPVRYEDVEHKVTTVFGQPLDLHYMNNELSILLKNQDDLDKAIDILDRSSSMKSLRILLLSQDRNHTSSSPHSGVSRQVRIKPSQSAGDINTIYQAPEPRSRHLSVSSQNPGRSSPPPGYVPERQQHIARQGSYTSINSEGEFIPETSEQCMLDPLSSAENSLSGSCQSLDRSADSPSFRKSQMSRARSFPDNRKECSDRETQLYDKGVKGGTYPRRYHVSVHHKDYNDGRRTFPRIRRHQGNLFTLVPSSRSLSTNGENMGVAVQYLDPRGRLRSADSENALTVQERNVPTKSPSAPINWRRGKLLGQGAFGRVYLCYDVDTGRELASKQVQFDPDSPETSKEVSALECEIQLLKNLQHERIVQYYGCLRDRAEKILTIFMEYMPGGSVKDQLKAYGALTESVTRKYTRQILEGMSYLHSNMIVHRDIKGANILRDSAGNVKLGDFGASKRLQTICMSGTGIRSVTGTPYWMSPEVISGEGYGRKADVWSLGCTVVEMLTEKPPWAEYEAMAAIFKIATQPTNPQLPSHISEHGRDFLRRIFVEARQRPSAEELLTHHFAQLVY
# B6: SUFU (endogenous, NIH3T3) (protein, UniProt Q9Z0P7 1-484)
# chain: MAELRPSVAPGPAAPPASGPSAPPAFASLFPPGLHAIYGECRRLYPDQPNPLQVTAIVKYWLGGPDPLDYVSMYRNMGSPSANIPEHWHYISFGLSDLYGDNRVHEFTGTDGPSGFGFELTFRLKRETGESAPPTWPAELMQGLARYVFQSENTFCSGDHVSWHSPLDNSESRIQHMLLTEDPQMQPVRTPFGVVTFLQIVGVCTEELHSAQQWNGQGILELLRTVPIAGGPWLITDMRRGETIFEIDPHLQERVDKGIETDGSNLSGVSAKCAWDDLSRPPEDEEDSRSICLGTQPRRLSGKDTEQIRETLRRGLEINSKPVLPPINSQRQNGLTHDRAPSRKDSLGSDSSTAIIPHELIRTRQLESVHLKFNQESGALIPLCLRGRLLHGRHFTYKSITGDMAITFVSTGVEGAFATEEHPYAAHGPWLQILLTEEFVEKMLEDLEDLTSPEEFKLPKEYSWPEKKLKVSILPDVVFDSPLH
# What was measured:
# [1] = target: GLI1 (transfected, wild type) (human) (UniProt P08151); experiment: co-IP; co-immunoprecipitation of tagged GLI1 with tagged MEKK2, MEKK3 or MEKK3-KD (Supplementary Figures S1h-S1l); lysates with anti-HA agarose or anti-Flag magnetic beads overnight at 4 °C; cells and bait not given
# [2] = target: T1, SUFU (transfected, HEK293T) (UniProt Q9UMX1); experiment: co-IP; HEK293T cells transfected with indicated plasmids (with or without MEKK3); lysates with anti-HA agarose or anti-Flag magnetic beads overnight at 4 °C
# T1 sequence: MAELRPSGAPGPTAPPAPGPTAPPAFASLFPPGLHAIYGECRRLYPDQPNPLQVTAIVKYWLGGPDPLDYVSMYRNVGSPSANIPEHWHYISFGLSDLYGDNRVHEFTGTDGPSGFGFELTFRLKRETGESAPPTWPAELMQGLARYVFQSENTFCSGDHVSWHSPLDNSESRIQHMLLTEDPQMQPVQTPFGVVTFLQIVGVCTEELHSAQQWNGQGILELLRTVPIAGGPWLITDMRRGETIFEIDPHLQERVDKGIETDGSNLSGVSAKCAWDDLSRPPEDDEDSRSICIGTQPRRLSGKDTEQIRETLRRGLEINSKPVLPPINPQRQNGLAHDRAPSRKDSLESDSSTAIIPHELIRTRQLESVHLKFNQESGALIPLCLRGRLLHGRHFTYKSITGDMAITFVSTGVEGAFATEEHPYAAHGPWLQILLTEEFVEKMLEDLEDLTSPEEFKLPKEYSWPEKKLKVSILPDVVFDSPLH
# [3] = target: GLI1-Flag (stable NIH3T3 cells, lentiviral) (human) (UniProt P08151); experiment: co-IP; lysates of NIH3T3 cells stably expressing GLI1-Flag (lentivirus; control and MEKK2/3 DKO cells), immunoprecipitated by Flag, endogenous partners blotted; beads overnight at 4 °C
Binder,binding [1],binding [2],binding [3]
B1,binds,–,–
B2,binds,binds,–
B3,binds,–,–
B4,–,–,binds
B5,–,–,binds
B6,–,–,binds
